The supplement of paper PMC10011410
± gives the standard deviation of the averaged measurements. These are raw signals, not scaled to a control.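 Values average three technical replicates, each on its own plate. On all plates, reagent-free control wells corrected for intrinsic cell fluorescence and DMSO-treated wells acted as vehicle controls. No hit or active cutoff is set for these live-cell readings.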

Columns and labels:
[1] = system: U-2 OS; assay: AUC of Cytotox red (membrane-compromised) object count (AUC (object count x time)); higher = more apoptotic or dead cells
Experimental: (§1)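 Live-cell Incucyte imaging of U-2 OS cells with Caspase-3/7 Green and Cytotox Red reagents. Compounds were tested mostly at 5, 10 and 20 uM, and cells were imaged every 4 h for up to 60 h. Value is the area under the curve of positive object counts over time, per channel: green = caspase 3/7, red = membrane-compromised, overlap = both.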

[2] = system: U-2 OS; assay: AUC of caspase 3/7-positive object count (AUC (object count x time)); higher = more apoptotic or dead cells
Experimental: as §1

SMILES | AUC of Cytotox red ([1]; 5 µM) | AUC of Cytotox red ([1]; 10 µM) | AUC of Cytotox red ([1]; 20 µM) | AUC of caspase 3/7-positive object count ([2]; 5 µM) | AUC of caspase 3/7-positive object count ([2]; 10 µM) | AUC of caspase 3/7-positive object count ([2]; 20 µM) | AUC of Cytotox red ([1]; 40 µM) | AUC of Cytotox red ([1]; 80 µM) | AUC of caspase 3/7-positive object count ([2]; 40 µM) | AUC of caspase 3/7-positive object count ([2]; 80 µM) | AUC of Cytotox red ([1]; 0.625 µM) | AUC of Cytotox red ([1]; 1.25 µM) | AUC of Cytotox red ([1]; 2.5 µM) | AUC of caspase 3/7-positive object count ([2]; 0.625 µM) | AUC of caspase 3/7-positive object count ([2]; 1.25 µM) | AUC of caspase 3/7-positive object count ([2]; 2.5 µM)
COc1ccc(N2C(=O)CC(Sc3nnc(-c4ccccc4)o3)C2=O)cc1 (stereo unspecified) | 143 | 1470 | 1760 | 102 | 471 | 761 |  |  |  |  |  |  |  |  |  | 
COc1cc(OC)c2ccccc2c1C=C1C(=O)NC(=S)NC1=O | 236 | 136 | 91.7 | 362 | 161 | 77.2 |  |  |  |  |  |  |  |  |  | 
O=C(/C(C(N1CC2=CC=CC=C2)=O)=C/C3=C(C)C=C(O)C=C3C)N(CC4=CC=CC=C4)C1=O | 23.4 | 18.9 | 133 | 36.5 | 68.3 | 217 | 355 | 1100 | 404 | 1250 |  |  |  |  |  | 
C[C@@]12C(=O)OC(=O)[C@]1(C)[C@H]1CC[C@@H]2O1 | 61.3 | 60.4 | 264 | 56.2 | 44.1 | 247 |  |  |  |  |  |  |  |  |  | 
CNC(=O)c1cc(Oc2ccc(NC(=O)Nc3ccc(Cl)c(C(F)(F)F)c3)cc2)ccn1 | 43.6 | 97.1 | 268 | 41.6 | 133 | 946 |  |  |  |  |  |  |  |  |  | 
C=CC(=O)Nc1cccc(Oc2nc(Nc3ccc(N4CCN(C)CC4)cc3OC)ncc2Cl)c1 | 36.3 | 323 | 1130 | 56.6 | 226 | 91.8 |  |  |  |  |  |  |  |  |  | 
CCc1c2c(nc3ccc(OC(=O)N4CCC(N5CCCCC5)CC4)cc13)-c1cc3c(c(=O)n1C2)COC(=O)[C@]3(O)CC.Cl | 56.7 | 45.6 | 72.6 | 23.8 | 15.9 | 24.6 |  |  |  |  |  |  |  |  |  | 
CN1C(=O)[C@@]23C[C@]4([C@]56C[C@@]78SS[C@@](CO)(C(=O)N7[C@H]5Nc5ccccc56)N(C)C8=O)c5ccccc5N[C@@H]4N2C(=O)[C@]1(CO)SS3 | 1190 | 1440 | 1610 | 909 | 771 | 839 |  |  |  |  |  |  |  |  |  | 
O=S1(=O)C=C(Sc2nn(-c3ccccc3)c(=S)s2)c2ccccc21 | 971 | 831 | 641 | 929 | 734 | 432 |  |  |  |  |  |  |  |  |  | 
O=C(NNS(=O)(=O)c1ccccc1)c1cc(-c2ccnnc2)ccc1F | 34.4 | 33.4 | 23 | 48.7 | 50.9 | 46 |  |  |  |  |  |  |  |  |  | 
O=C1/C(=C/c2ccc(O)c(Br)c2)CCC/C1=C\c1ccc(O)c(Br)c1 | 42.1 |  |  | 54.7 |  |  |  |  |  |  |  |  |  |  |  | 
Cn1c(=O)n(-c2ccc(C(C)(C)C#N)cc2)c2c3cc(-c4cnc5ccccc5c4)ccc3ncc21 | 64.7 | 74.4 | 178 | 82.6 | 112 | 175 |  |  |  |  |  |  |  |  |  | 
O=C(CCCCCCC(=O)Nc1ccccc1)NO | 541 | 557 | 575 | 762 | 771 | 861 |  |  |  |  |  |  |  |  |  | 
S=P(N1CC1)(N1CC1)N1CC1 | 59.7 | 37.6 | 47.8 | 23.1 | 9.6 | 19.9 |  |  |  |  |  |  |  |  |  | 
Cc1nc(Nc2ncc(C(=O)Nc3c(C)cccc3Cl)s2)cc(N2CCN(CCO)CC2)n1 | 95 | 170 | 390 | 138 | 221 | 455 |  |  |  |  |  |  |  |  |  | 
C=CC(=O)Nc1cc2c(Nc3ccc(F)c(Cl)c3)ncnc2cc1OCCCN1CCOCC1 | 252 | 886 | 1220 | 502 | 1150 | 1090 |  |  |  |  |  |  |  |  |  | 
O=C(O)C[C@@H]1C(=O)O[C@H]2[C@@H]3OC(=O)c4cc(O)c(O)c(O)c4-c4c(cc(O)c(O)c4O)C(=O)OC[C@H]2O[C@@H](OC(=O)c2cc(O)c(O)c(O)c2)[C@@H]3OC(=O)c2cc(O)c(O)c3c2[C@H]1[C@H](O)C(=O)O3 | -0.503 | 0.831 | -0.0443 | 43.6 | 35.7 | 37 |  |  |  |  |  |  |  |  |  | 
CCCCCCCCCCCCCCCc1cccc(O)c1C(=O)O | 33.2 | 34.5 | 28.8 | 42 | 39.2 | 52 | 19.1 | 81.7 | 36.4 | 76.2 |  |  |  |  |  | 
O=c1c(O)c(-c2ccc(O)c(O)c2)oc2cc(O)cc(O)c12 | 19.7 | 22.6 | 3.88 | 33.3 | 57.9 | 104 |  |  |  |  |  |  |  |  |  | 
Nc1nc(-c2ccccc2)ns1 | 21.5 | 42.5 | 52.1 | 24 | 51.3 | 47.1 |  |  |  |  |  |  |  |  |  | 
O=C(CBr)N1CC([N+](=O)[O-])([N+](=O)[O-])C1 | 51.3 | 48.7 | 57.4 | 49.2 | 34.3 | 29 |  |  |  |  |  |  |  |  |  | 
C[C@@]1(CO)[C@H](O)CC[C@@]2(C)[C@H]1CC[C@H]1C[C@@H]3C[C@@]12CC[C@]3(O)CO | 23.9 | 31.4 | 39.1 | 61 | 60.4 | 87.8 |  |  |  |  |  |  |  |  |  | 
COc1cc2c(c(OC)c1OC)-c1ccc(OC)c(=O)cc1[C@@H](NC(C)=O)CC2 | 574 | 497 | 509 ± 18 | 629 | 596 | 613 ± 30 |  |  |  |  | 585 | 622 | 547 | 581 | 654 | 605
O=NN(CCCl)C(=O)NCCCl | 65.6 | 70.9 | 66 | 29.7 | 36.3 | 30.2 |  |  |  |  |  |  |  |  |  | 
O=[N+]([O-])c1c(Cl)cc(Cl)c2nsnc12 | 423 | 733 | 961 | 478 | 853 | 805 |  |  |  |  |  |  |  |  |  | 
CCN1CCN(c2ccc3nsnc3c2[N+](=O)[O-])CC1 | 30.6 | 47.1 | 27.7 | 32.8 | 36.7 | 17.8 |  |  |  |  |  |  |  |  |  | 

Part of the list above in order of molecular weight, low to high.
SMILES | AUC of Cytotox red ([1]; 5 µM) | AUC of Cytotox red ([1]; 10 µM) | AUC of Cytotox red ([1]; 20 µM) | AUC of caspase 3/7-positive object count ([2]; 5 µM) | AUC of caspase 3/7-positive object count ([2]; 10 µM) | AUC of caspase 3/7-positive object count ([2]; 20 µM) | AUC of Cytotox red ([1]; 40 µM) | AUC of Cytotox red ([1]; 80 µM) | AUC of caspase 3/7-positive object count ([2]; 40 µM) | AUC of caspase 3/7-positive object count ([2]; 80 µM) | AUC of Cytotox red ([1]; 0.625 µM) | AUC of Cytotox red ([1]; 1.25 µM) | AUC of Cytotox red ([1]; 2.5 µM) | AUC of caspase 3/7-positive object count ([2]; 0.625 µM) | AUC of caspase 3/7-positive object count ([2]; 1.25 µM) | AUC of caspase 3/7-positive object count ([2]; 2.5 µM)
O=c1c(O)c(-c2ccc(O)c(O)c2)oc2cc(O)cc(O)c12 | 19.7 | 22.6 | 3.88 | 33.3 | 57.9 | 104 |  |  |  |  |  |  |  |  |  | 
C[C@@]1(CO)[C@H](O)CC[C@@]2(C)[C@H]1CC[C@H]1C[C@@H]3C[C@@]12CC[C@]3(O)CO | 23.9 | 31.4 | 39.1 | 61 | 60.4 | 87.8 |  |  |  |  |  |  |  |  |  | 
COc1cc(OC)c2ccccc2c1C=C1C(=O)NC(=S)NC1=O | 236 | 136 | 91.7 | 362 | 161 | 77.2 |  |  |  |  |  |  |  |  |  | 
